{"source": "PubChem BioAssay AID504834", "about": "(National Center for Advancing Translational Sciences (NCATS), 2011)", "note": "The whole screen tested about 320,000 compounds, of which about 22,000 (6.9%) were called active. The shares of active, inactive and inconclusive entries below differ from those in the screen. Calls come from the whole dose curve; as a rule, active = well fitted inhibition curve with a large enough effect; inconclusive = small, poorly fitted or top-dose-only effect, or another doubt; inactive = no such curve, though single readings can be large or run the other way. Potencies of inconclusive entries are doubtful fits and often do not repeat. Potency is the fitted concentration of half-maximal effect."}
{"assay": "Primary qHTS for delayed death inhibitors of the malarial parasite plastid, 96 hour incubation", "details": "P. falciparum luciferase reporter growth; series mostly up to 28.7 µM", "summary_of_the_method": "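Erythrocytes infected with luciferase-expressing P. falciparum were dispensed at 2% hematocrit and 0.05% parasitemia (final), then incubated with compounds 96 hours at 37 C in 5% CO2. Luminescence after detection reagent addition reported growth.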"}
{"smiles": "C=CCSc1nnc(CNS(=O)(=O)c2ccc(C)cc2)n1C", "Potency": "inconclusive: 0.0657 µM [inhibitor, full curve, poor fit]"}
{"smiles": "Cc1cccn2c(=O)nc(SCC(=O)NCCc3ccccc3)nc12", "Potency": "inactive"}
{"smiles": "O=c1[nH]c(CSc2nnc(COc3ccccc3)n2-c2ccccc2)nc2ccccc12", "Potency": "inactive"}
{"smiles": "Cc1ccc(-n2c(-c3ccco3)nc3nc4ccccc4nc32)cc1", "Potency": "inconclusive: 0.928 µM [inhibitor, full curve, poor fit]"}
{"smiles": "Cc1oc(S(=O)(=O)N2CCCCC2)cc1NC(=O)Nc1ccc(Cl)cc1", "Potency": "inconclusive: 11.7 µM [inhibitor, single point]"}
{"smiles": "Cc1ccc(S(=O)(=O)N2CCN(C(=O)[C@H](Cc3ccccc3)NC(=O)c3ccco3)CC2)cc1C", "Potency": "inconclusive: 11.7 µM [inhibitor, partial curve]"}
{"smiles": "CCC(Sc1nc2ncccc2[nH]1)C(=O)N1CCOCC1", "note": "(centres undefined)", "Potency": "inactive"}
{"smiles": "COc1ccccc1Nc1nccc(N(C)C)c1C#N", "Potency": "inconclusive: 18.5 µM [inhibitor, single point]"}
{"smiles": "COc1ccc(S(=O)(=O)N2CCCCC2)cc1NC(=O)[C@@H]1CCCN1C(=O)c1cccs1", "Potency": "inconclusive: 18.5 µM [inhibitor, single point]"}
{"smiles": "CC(C)(CNC(=O)Cc1ccc(Br)cc1)N1CCOCC1", "Potency": "inactive"}
{"smiles": "CC(=O)N1c2ccc(S(=O)(=O)N(C)Cc3ccccc3)cc2CC1C", "note": "(centres undefined)", "Potency": "inconclusive: 16.5 µM [inhibitor, single point]"}
{"smiles": "COc1ccc(Cc2nnc(NS(=O)(=O)c3ccc([N+](=O)[O-])cc3)s2)cc1", "Potency": "inactive"}
{"smiles": "COc1cccc(N(CC(=O)Nc2ccccc2C(=O)N2CCCC2)S(C)(=O)=O)c1", "Potency": "inconclusive: 18.5 µM [inhibitor, single point]"}
{"smiles": "COc1ccc(NC(=O)CSc2nc3sc4c(c3c(=O)n2-c2ccc(OC)cc2)CCN(C)C4)cc1", "Potency": "inconclusive: 9.28 µM [inhibitor, single point]"}
{"smiles": "C=CCc1cc(S(=O)(=O)c2ccc(O)c(CC=C)c2)ccc1O", "Potency": "inconclusive: 16.5 µM [inhibitor, partial curve, poor fit]"}
{"smiles": "CCC(=Cc1ccc(CC)cn1)CC", "Potency": "inconclusive: 6.57 µM [inhibitor, partial curve]"}
{"smiles": "COc1cc(NS(=O)(=O)c2ccc(N/C=C\\C(=O)c3ccc(OC)c(OC)c3)cc2)nc(OC)n1", "Potency": "inconclusive: 1.65 µM [inhibitor, full curve, poor fit]"}
{"smiles": "COc1ccc(OC[C@@H](O)CNC(=O)c2cccc3c2C(=O)c2ccc(Cl)cc2S3(=O)=O)cc1", "Potency": "active: 2.08 µM"}
{"smiles": "c1ccc(-c2ncc3c(ccc4ccccc43)n2)cc1", "Potency": "inactive"}
{"smiles": "COc1ccc(-c2nnc(SCC(=O)c3cccs3)o2)cc1", "Potency": "inactive"}
{"smiles": "COc1ccccc1NS(=O)(=O)c1cccc(NC(=S)NCCN2CCOCC2)c1", "Potency": "inconclusive: 11.7 µM [inhibitor, single point]"}
{"smiles": "O=C(Cc1c[nH]c2ccccc12)NCC(=O)Nc1ccc(F)c(F)c1F", "Potency": "inactive"}
{"smiles": "Cc1cc(=O)oc2cc(OC(C)C(=O)NCCCN3CCCC3=O)c(Cl)cc12", "note": "(centres undefined)", "Potency": "inconclusive: 18.5 µM [inhibitor, single point]"}
{"smiles": "O=C1OC(Nc2nc(-c3ccc(F)cc3)cs2)c2ccccc21", "note": "(centres undefined)", "Potency": "inconclusive: 18.5 µM [inhibitor, single point]"}
{"smiles": "N#Cc1ccccc1S(=O)(=O)N1CCC(C(=O)Nc2cccc(C(=O)NC3CC3)c2)CC1", "Potency": "inconclusive: 10.4 µM [inhibitor, single point]"}
{"smiles": "Cn1c(=O)c2c(nc(Oc3ccccc3Cl)n2C)n(C)c1=O", "Potency": "inactive"}
{"smiles": "COc1ccc(S(=O)(=O)N2CCCCCC2)cc1C(=O)N(C)Cc1c(F)cccc1Cl", "Potency": "inconclusive: 2.94 µM [inhibitor, full curve, poor fit]"}
{"smiles": "CCCC(=O)Nc1cc(-c2nn(C)c(=O)c3ccccc23)ccc1OC", "Potency": "inconclusive: 11.7 µM [inhibitor, single point]"}
{"smiles": "O=C(NCc1ccc(Cl)cc1)C1CCCN(C(=O)c2ccc(Cl)cc2)C1", "note": "(centres undefined)", "Potency": "inconclusive: 10.4 µM [inhibitor, single point]"}
{"smiles": "O=C(OCc1cncs1)c1cccs1", "Potency": "inactive"}
{"smiles": "COc1ccccc1C(=O)NC(CCSC)C(=O)NCc1ccncc1", "note": "(centres undefined)", "Potency": "inconclusive: 10.4 µM [inhibitor, single point]"}
{"smiles": "O=C(NCC1CCCO1)C1CCCN(S(=O)(=O)c2cccc3nsnc23)C1", "note": "(centres undefined)", "Potency": "inconclusive: 18.5 µM [inhibitor, single point]"}
{"smiles": "CN(C)/C=C/C(=O)c1ccc(Oc2ccccc2)cc1", "Potency": "inactive"}
{"smiles": "COCCCNC(=S)N/N=C/c1cccc(OC)c1O", "Potency": "inconclusive: 0.415 µM [inhibitor, full curve, poor fit]"}
{"smiles": "Cc1ccccc1NC(=O)CCC(=O)OCC(=O)c1cccc([N+](=O)[O-])c1", "Potency": "inactive"}
{"smiles": "O=C(COC(=O)c1cc(S(=O)(=O)N2CCOCC2)ccc1Cl)NCCc1ccccc1", "Potency": "inactive"}
{"smiles": "O=C(N/N=C/c1cccc(C(F)(F)F)c1)c1ccccc1O", "Potency": "inconclusive: 18.5 µM [inhibitor, single point]"}
{"smiles": "CNS(=O)(=O)c1cccc(C(=O)OCC(=O)/C=C2/N(C)c3ccccc3C2(C)C)c1", "Potency": "inconclusive: 14.7 µM [inhibitor, partial curve, poor fit]"}
{"smiles": "Cn1c(CCN2CCOCC2)nc2cc(NC(=O)COc3ccccc3)ccc21", "Potency": "inactive"}
{"smiles": "Cc1ccc2oc(=O)c3cc(C(=O)NCCN4CCc5ccccc5C4)sc3c2c1", "Potency": "inconclusive: 14.7 µM [inhibitor, single point]"}
{"smiles": "CCCn1nc(C(=O)N2CCN(S(=O)(=O)c3ccc(C)c(C)c3)CC2)c2ccccc2c1=O", "Potency": "inconclusive: 10.4 µM [inhibitor, partial curve, poor fit]"}
{"smiles": "Cc1ccc(NC(=S)N2CCN(c3ccccc3F)CC2)c(C)c1", "Potency": "inconclusive: 18.5 µM [inhibitor, single point]"}
{"smiles": "Cn1ccnc1C(O)c1ccccc1", "note": "(centres undefined)", "Potency": "inconclusive: 11.7 µM [inhibitor, single point]"}
{"smiles": "CCN1CCc2c(sc(NC(=S)NC(=O)c3ccc(Cl)cc3)c2C(N)=O)C1", "Potency": "inconclusive: 9.28 µM [inhibitor, partial curve, poor fit]"}
